PubChem BioAssay AID720505 – Drosophila RNAi Screening Center – 2013
Screen: 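Fly regulators or components of the CRAC channel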 (primary screen). Cell system: Drosophila S2R+ cells. Knock-down reagent: long dsRNA against Drosophila genes. Challenge: thapsigargin (2 µM) in calcium-free buffer to empty internal stores, then 2 mM calcium added back. Measurement: 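Stores emptied by 2 µM thapsigargin without calcium, then 2 mM calcium re-added; fluo-4 fluorescence followed by FLIPR in 384-well plates, per-well averaged endpoint, raw; two screen passes, some wells retested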. Reading the numbers: calcium signal: higher = more calcium entry after store depletion. Call rule: 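About 1500 genes called as lowering calcium entry, by varying amounts, judged against per-plate control wells with STIM1 as positive and Rho1 as negative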. Calls: active = called as lowering calcium entry; inactive = not called.
In all, the deposit lists about 20,000 reagents; this is an unselected part of those that have a named target and a result. Of all reagents, about 2,100 (10%) are marked active. 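Raw plate signals without normalisation; calls rest on control-based scores that were not deposited; replicate 2 separates called from uncalled poorly.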 A plus sign joins genes that one reagent is predicted to hit. The record does not give: the amount of reagent, the time to read-out.

What is on record for her (hermaphrodite) [DRSC03543]?
calcium signal, replicate 1: 115; calcium signal, replicate 2: 108; call: inactive

How did the screen score CG18477 + CG31780 [DRSC01955]?
calcium signal, replicate 1: 92; calcium signal, replicate 2: 109; call: inactive

What did the screen give for CG8765 [DRSC11041]?
calcium signal, replicate 1: 101; calcium signal, replicate 2: 151; call: inactive

How did the screen score CG8765 [DRSC23043]?
calcium signal, replicate 1: 94.1; calcium signal, replicate 2: 148; call: inactive

With CG15814 [DRSC19730], what was measured?
calcium signal, replicate 1: 143; calcium signal, replicate 2: 183; call: inactive

How did the screen score CR41501 (pseudo) [DRSC07785]?
calcium signal, replicate 1: 113; calcium signal, replicate 2: 96.3; call: inactive

With RpL9 (Ribosomal protein L9) [DRSC03418], what was measured?
calcium signal, replicate 1: 119; calcium signal, replicate 2: 108; call: inactive

With E(spl)m8-HLH (Enhancer of split m8, helix-loop-helix) [DRSC16654], what does the deposit list?
calcium signal, replicate 1: 221; calcium signal, replicate 2: 155; call: inactive

Which result is listed for ssp3 (short spindle 3) [DRSC02669]?
calcium signal, replicate 1: 82.8; calcium signal, replicate 2: 87.7; call: inactive

With ssp3 (short spindle 3) [DRSC02670], how do the results read?
calcium signal, replicate 1: 104; calcium signal, replicate 2: 97.7; call: inactive

What is on record for pod1 (pod1 coronin) [DRSC18362]?
calcium signal, replicate 1: 204; calcium signal, replicate 2: 125; call: inactive

What did the screen give for betaTub56D (beta-Tubulin at 56D) [DRSC07583]?
calcium signal, replicate 1: 138; calcium signal, replicate 2: 112; call: inactive

For CG30048 [DRSC22205], what was measured?
calcium signal, replicate 1: 82.6; calcium signal, replicate 2: 243; call: inactive

With CG42304 + Snup [DRSC08276], what was measured?
calcium signal, replicate 1: 66.8; calcium signal, replicate 2: 107; call: active

For CG42304 + Snup [DRSC08277], what does the deposit list?
calcium signal, replicate 1: 70.4; calcium signal, replicate 2: 88.4; call: inactive

For CG42304 + Snup [DRSC22781], what does the deposit list?
calcium signal, replicate 1: 144; calcium signal, replicate 2: 140; call: inactive

With CG12231 [DRSC19445], what was measured?
calcium signal, replicate 1: 74.6; calcium signal, replicate 2: 144; call: active

Copied from the list.
For “calcium signal, replicate 2”, CG8765 [DRSC23043] shows 148
Result of CG42304 + Snup [DRSC08277] in “call”: inactive

Continued:
Which result is listed for TM4SF (Transmembrane 4 superfamily) [DRSC04661]?
calcium signal, replicate 1: 97.3; calcium signal, replicate 2: 129; call: inactive

With CG3803 [DRSC04420], what was measured?
calcium signal, replicate 1: 86.3; calcium signal, replicate 2: 231; call: inactive

What is on record for hwt (heavyweight) [DRSC19386]?
calcium signal, replicate 1: 99; calcium signal, replicate 2: 159; call: inactive

What is on record for hwt (heavyweight) [DRSC19695]?
calcium signal, replicate 1: 106; calcium signal, replicate 2: 86.8; call: inactive

What is on record for CG13654 [DRSC14654]?
calcium signal, replicate 1: 233; calcium signal, replicate 2: 103; call: inactive

With CG14315 [DRSC14794], what does the deposit list?
calcium signal, replicate 1: 122; calcium signal, replicate 2: 95; call: inactive

Which result is listed for CG10477 [DRSC09732]?
calcium signal, replicate 1: 46; calcium signal, replicate 2: 86.4; call: inactive

Which result is listed for Lon (Lon protease) [DRSC11049]?
calcium signal, replicate 1: 82.1; calcium signal, replicate 2: 100; call: inactive

What did the screen give for Pdi (Protein disulfide isomerase) [DRSC11250]?
calcium signal, replicate 1: 88.7; calcium signal, replicate 2: 168; call: inactive

What is on record for CG4681 [DRSC04481]?
calcium signal, replicate 1: 137; calcium signal, replicate 2: 180; call: inactive

How did the screen score CG34460 [DRSC06974]?
calcium signal, replicate 1: 110; calcium signal, replicate 2: 109; call: inactive
